# Assay results from the supplement of paper PMC4749390.
# Where “and” joins values, the source holds several entries; their conditions need not be identical. Identical values can stand only once. Counter-ions that a name gives are not always drawn. The list shows a part of the results. Single values are uncertain here, since repeats match poorly.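 JEG3 cells stably carry tetracycline-induced wild-type human LRH-1, a heavily sumoylated nuclear receptor. APOC3 and MUC1 are SUMO-sensitive transcripts, raised by SUMO-less LRH-1 or UBC9 knockdown, measured by RT-qPCR against TBP and DMSO controls. A robust Z-score above +2 or below -2 marked a primary hit before toxicity and TBP filtering.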
# Tested on: JEG3 expressing hLRH-1
# Assay: MUC1 transcript change (ddCt vs TBP and DMSO), Z-score over library; higher = higher MUC1 expression
# Conditions: 10 µM; time (hr): 24
row,SMILES,MUC1 transcript change (Z-score)
1,COc1ccc2cc3[n+](cc2c1OC)CCc1cc2c(cc1-3)OCO2 [berberine chloride],-0.493
2,O=C1O[C@H](CO)[C@@H](O)[C@H](O)[C@H]1O [gluconolactone],0.903
3,C[C@H](COc1ccccc1)N[C@H](C)[C@H](O)c1ccc(O)cc1 [isoxsuprine hydrochloride],0.313
4,CCCN(CCC)C(=O)C(CCC(=O)O)NC(=O)c1ccccc1 (stereo unspecified) [Proglumide],-0.725
5,COc1cc(OC)c(C(=O)CCCN2CCCC2)c(OC)c1 [buflomedil hydrochloride],-0.117
6,COc1cc2nc(N3CCN(C(=O)C4CCCO4)CC3)nc(N)c2cc1OC (stereo unspecified) [terazosin hydrochloride],-0.226
7,CS(=O)(=O)OCCCCOS(C)(=O)=O [busulfan],-0.33
8,CC(C)Oc1ccc2c(=O)cc(-c3ccccc3)oc2c1 [ipriflavone],-1.49
9,COc1ccc2[nH]c(S(=O)Cc3ncc(C)c(OC)c3C)nc2c1 (stereo unspecified) [omeprazole],0.688 and 1.12
10,Oc1ccc(Cl)c2cccnc12 [cloxyquin],0.141
11,Cn1ccnc1S [methimazole],-0.66
12,CC[C@H]1OC(=O)[C@H](C)[C@@H](O[C@H]2C[C@@](C)(OC)[C@@H](O)[C@H](C)O2)[C@H](C)[C@@H](O[C@@H]2O[C@H](C)C[C@H](N(C)C)[C@H]2O)[C@](C)(O)C[C@@H](C)C(=O)[C@H](C)[C@@H](O)[C@]1(C)O [erythromycin],0.238 and 0.344
13,CCC(=O)c1ccc(O)cc1 [paroxypropione],0.491
14,COc1ccc(C2CNC(=O)C2)cc1OC1CCCC1 (stereo unspecified) [Rolipram],-1.2
15,COc1cc(Cc2cnc(N)nc2N)cc(OC)c1OC [Trimethoprim],-0.405
16,Cc1ccccc1N1C(=O)c2cc(S(N)(=O)=O)c(Cl)cc2NC1C (stereo unspecified) [metolazone],0.0537
17,C[C@H]1[C@H](OC(=O)CCC(=O)O)O[C@@H]2O[C@@]3(C)CC[C@H]4[C@H](C)CC[C@@H]1[C@@]24OO3 [artesunate],-1.13
18,COCC1=C(C(=O)OC(C)OC(=O)OC(C)C)N2C(=O)[C@@H](NC(=O)/C(=N\OC)c3csc(N)n3)[C@H]2SC1 (stereo partly specified) [cefpodoxime proxetil],0.0465
19,C[C@H](Cn1cnc2c(N)ncnc21)OCP(=O)(O)O [tenofovir],1.23
20,Cc1c(NC(C)C)c(=O)n(-c2ccccc2)n1C [ramifenazone],-0.0494
21,O=C(O)CN(CCN(CC(=O)O)CC(=O)O)CCN(CC(=O)O)CC(=O)O [pentetic acid],-1.95

row,SMILES,MUC1 transcript change (Z-score)
1,CCCCC(CC)CN1CN(CC(CC)CCCC)CC(C)(N)C1 (stereo unspecified) [hexetidine],0.276
2,C[C@@H]1CN(c2c(F)c(F)c3c(=O)c(C(=O)O)cn(C4CC4)c3c2F)C[C@H](C)N1 [orbifloxacin],-0.176
3,OC(CCN1CCCCC1)(c1ccccc1)C1CCCCC1 (stereo unspecified) [Trihexyphenidyl hydrochloride],-0.0164
4,C[C@H]1CC2C3CCC4=CC(=O)C=C[C@]4(C)[C@@]3(F)[C@@H](O)C[C@]2(C)[C@@]1(O)C(=O)CO (stereo partly specified) [betamethasone],-0.559
5,Cc1ncc([N+](=O)[O-])n1CC(O)CCl (stereo unspecified) [ornidazole],0.501
6,OCCOCCN1CCN(C2=Nc3ccccc3Sc3ccccc32)CC1 [quetiapine],-0.815
7,COc1ccc(/C=C/C(=O)Nc2ccccc2C(=O)O)cc1OC [tranilast],-0.448
8,Cc1nc(N)cc(C[n+]2csc(CCO)c2C)n1 [thiamine],0.0333
9,C#C[C@]1(O)CC[C@H]2[C@@H]3CCc4cc(OC5CCCC5)ccc4[C@H]3CC[C@@]21C [quinestrol],0.299
10,NS(=O)(=O)c1cc2c(cc1Cl)NC=NS2(=O)=O [Chlorothiazide],0.287
11,Cc1cc2cc3c(C)cc(=O)oc3c(C)c2o1 [trioxsalen],-1.42
12,NS(=O)(=O)c1cc(C(=O)O)c(NCc2ccco2)cc1Cl [furosemide],0.108
13,CNS(=O)(=O)Cc1ccc2[nH]cc(CCN(C)C)c2c1 [sumatriptan succinate],0.903
14,CN(C)CC(c1ccc(O)cc1)C1(O)CCCCC1 (stereo unspecified) [desvenlafaxine succinate],-0.421
15,CCCCC(CC)COc1ccc(-c2nc(-c3ccc(OC)cc3)nc(-c3ccc(OCC(CC)CCCC)cc3O)n2)c(O)c1 (stereo unspecified) [bemotrizinol],0.99
16,CC(CN(C)C)CN1c2ccccc2CCc2ccccc21 (stereo unspecified) [trimipramine maleate],-0.848
17,CN1CCCN=C1COC(=O)C(O)(c1ccccc1)C1CCCCC1 (stereo unspecified) [oxyphencyclimine hydrochloride],1.08
18,O=c1n(CCCN2CCN(c3cccc(Cl)c3)CC2)nc2ccccn12 [Trazodone hydrochloride],-0.381
19,O=C(OCc1ccccc1)c1ccccc1 [benzyl benzoate],0.24
20,COc1ccc(Cc2cnc(N)nc2N)cc1OC [diaveridine],-1.22
21,Cc1c(N(C)CS(=O)(=O)O)c(=O)n(-c2ccccc2)n1C [dipyrone],0.38

row,SMILES,MUC1 transcript change (Z-score)
1,C#C[C@]1(O)CCC2C3CCC4=C(CCC(=O)C4)C3CC[C@@]21C (stereo partly specified) [norethynodrel],-0.685
2,CCCCNc1ccc(C(=O)OCCOCCOCCOCCOCCOCCOCCOCCOCCOC)cc1 [benzonatate],0.365
3,O=P(O)(O)C(O)(Cc1cccnc1)P(=O)(O)O [risedronate sodium],-0.357
4,COCCCOc1cc(C[C@@H](C[C@H](N)[C@@H](O)C[C@H](C(=O)NCC(C)(C)C(N)=O)C(C)C)C(C)C)ccc1OC [aliskiren hemifumarate],0.969
5,CC(C)CC(N)=O [isovaleramide],0.0541
6,Cc1onc(-c2c(Cl)cccc2Cl)c1C(=O)N[C@@H]1C(=O)N2[C@@H]1SC(C)(C)[C@@H]2C(=O)O [dicloxacillin sodium],-0.153
7,C[C@H](CCC(=O)O)[C@H]1CCC2C3C(CC[C@@]21C)[C@@]1(C)CC[C@@H](O)C[C@H]1C[C@@H]3O (stereo partly specified) [ursodiol],0.582
8,O=C(CCCl)NCCc1ccccc1 [fenaclon],-0.463
9,CCCCOC(=O)c1ccc(N)cc1 [butamben],-0.751
10,NNC(=O)c1ccncc1.Nc1ccc(C(=O)O)c(O)c1 [pasiniazid],-0.131
11,O=C(O)c1cc(N=Nc2ccc(S(=O)(=O)Nc3ccccn3)cc2)ccc1O [sulfasalazine],1.2
12,CCCCC(=O)N(Cc1ccc(-c2ccccc2-c2nn[nH]n2)cc1)[C@H](C(=O)O)C(C)C [valsartan],0.399
13,CCN1CCC(CNC(=O)c2cc(S(N)(=O)=O)ccc2OC)C1 (stereo unspecified) [sulpiride],0.00198
14,O=C(O)Cc1ccc(-c2ccccc2)cc1 [felbinac],0.858
15,COc1ccc(CCN(C)CCCC(C#N)(c2ccc(OC)c(OC)c2)C(C)C)cc1OC (racemic) [(±)-Verapamil hydrochloride],0.39
16,COc1c(N2CCNC(C)C2)c(F)cc2c(=O)c(C(=O)O)cn(C3CC3)c12 (stereo unspecified) [gatifloxacin],0.114
17,Cn1c(=O)c2c(ncn2C)n(C)c1=O [Caffeine],-1.23
18,NS(=O)(=O)c1cc(C2(O)NC(=O)c3ccccc32)ccc1Cl (stereo unspecified) [chlorthalidone],-0.461
19,CO/N=C(\C(=O)N[C@@H]1C(=O)N2C(C(=O)OC(C)OC(C)=O)=C(COC(N)=O)CS[C@H]12)c1ccco1 (stereo partly specified) [cefuroxime axetil],0.363
20,CSc1ccc2c(c1)C(N1CCN(C)CC1)Cc1ccccc1S2 (stereo unspecified) [Methiothepin mesylate],-0.174
21,OCc1ccccc1O [salicyl alcohol],1.12

row,SMILES,MUC1 transcript change (Z-score)
1,O=C(O)c1cc(O)c(O)c(O)c1 [gallic acid],-0.577
2,Cc1nc(O)c(C#N)cc1-c1ccncc1 [milrinone],0.88
3,CC1=NN(c2ccccc2)C(=O)C1 [3-methyl-1-phenyl-2-pyrazolin-5-one (mci-186)],0.378
4,CC(=O)Oc1cccc(C)c1 [meta-cresyl acetate],0.362
5,Oc1c(Cl)cc(Cl)c(Cl)c1Cc1c(O)c(Cl)cc(Cl)c1Cl [hexachlorophene],0.618
6,Nc1nc(N)c2nc(CNc3ccc(C(=O)NC(CCC(=O)O)C(=O)O)cc3)cnc2n1 (stereo unspecified) [Aminopterin],0.228
7,FC(F)(F)COCC(F)(F)F [flurothyl],1.3
8,C[C@@H]1CC2C3CCC4=CC(=O)C=C[C@]4(C)[C@@]3(F)[C@@H](O)C[C@]2(C)[C@@]1(O)C(=O)COP(=O)(O)O (stereo partly specified) [dexamethasone sodium phosphate],-0.419
9,CCN[C@@H]1C[C@H](N)[C@@H](O[C@H]2OC(CN)=CC[C@H]2N)[C@H](O)[C@H]1O[C@H]1OC[C@](C)(O)[C@H](NC)[C@H]1O [netilmicin sulfate],0.0425
10,N=C(N)c1ccc(N=NNc2ccc(C(=N)N)cc2)cc1 [diminazene aceturate],0.171
11,Cc1c(O)c(=O)ccn1C [deferiprone],-2.25
12,C=CC1=C(C)c2cc3nc(cc4[nH]c(cc5[nH]c(cc1n2)c(C)c5C=C)c(C)c4CCC(=O)O)C(CCC(=O)O)=C3C [protoporphyrin ix],-0.402
13,CC(C(=O)O)c1ccc2c(c1)[nH]c1ccc(Cl)cc12 (stereo unspecified) [carprofen],0.715
14,OC[C@@H](O)[C@H](O)[C@@H](O)[C@H](O)CO [sorbitol],0.124
15,Nc1[nH]cnc2ncnc1-2 [adenine],0.76
16,CC12CCC(=O)C=C1CCC1C2[C@@H](O)CC2(C)C1CC[C@]2(O)C(=O)COP(=O)(O)O (stereo partly specified) [hydrocortisone sodium phosphate],-0.83
17,O=C(O)c1cc(O)nc(O)n1 [orotic acid],-0.0954
18,NC(=O)NS(=O)(=O)c1ccc(N)cc1 [sulfacarbamide],-2.51
